Results: paper PMC7819943, “Rice protein-binding microarrays: a tool to detect cis-acting elements near promoter regions in rice”
Some of the results follow.

Biological target: T1, OsSMF1 (Oryza sativa, UniProt Q6ZLB0 1-436)
T1 sequence: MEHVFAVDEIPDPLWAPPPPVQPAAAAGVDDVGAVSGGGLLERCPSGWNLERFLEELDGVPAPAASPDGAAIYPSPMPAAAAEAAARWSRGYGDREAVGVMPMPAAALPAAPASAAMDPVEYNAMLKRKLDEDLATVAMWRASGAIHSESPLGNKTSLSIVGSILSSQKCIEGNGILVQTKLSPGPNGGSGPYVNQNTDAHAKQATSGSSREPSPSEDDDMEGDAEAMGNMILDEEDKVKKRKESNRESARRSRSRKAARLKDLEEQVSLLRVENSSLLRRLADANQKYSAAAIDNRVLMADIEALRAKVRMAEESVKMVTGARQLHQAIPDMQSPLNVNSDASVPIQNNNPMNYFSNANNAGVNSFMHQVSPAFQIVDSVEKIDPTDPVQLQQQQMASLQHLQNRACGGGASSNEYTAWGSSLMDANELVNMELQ
Experiment: protein-binding microarray (RPBM); PBS, 2% BSA, 51.3 ng/ul salmon testes DNA, 50 uM zinc acetate, 200 nM TF, 25 C, 1 h; high values mean tight binding
Conditions: protein: recombinant; tags: N-terminal polyhistidine and DsRed monomer fusion (pET32a); chain copies: 2; label: CyDye5-dUTP incorporated in the synthesized complementary strand; 3' TTTTT single-stranded linker to array surface; dsDNA, one strand shown
How it was run: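 A custom Agilent array was converted to double-stranded form by primer extension with Cy5-dUTP and blocked with 2% BSA. Protein at 200 nM in PBS with 2% BSA, salmon testes DNA and 50 µM zinc acetate was applied for 1 h at 25 °C, followed by washing. The proteins were polyhistidine–DsRed N-terminal fusions of transcription factors, expressed in E. coli BL21-CodonPlus and Ni–NTA-purified. The binding signal is per-feature fluorescence intensity (arbitrary units) from an Axon 4000B scanner.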

Sequence	binding signal
CCGGAGCCGGAAGCTGACGCGTGGCACGTGGTCGGCGAGGCGGAGTCACCTAGTGCAG	8390 fluorescence intensity (a.u.)
TTGGTTGAATGATAACTTAGCTCACTGAGTGACAGGTTTTCGGAGTCACCTAGTGCAG	3310 fluorescence intensity (a.u.)
GCCCTTCAATTTCATGCCATGCAGGCGATGAGTTGGCAAACGGAGTCACCTAGTGCAG	7570 fluorescence intensity (a.u.)
CAATCTCCTCCGGCGTTGTCGACGTCGGCCTTGAGCCCGCCGGAGTCACCTAGTGCAG	3670 fluorescence intensity (a.u.)
GTGCACGCACGCTGACCTGGCGGCATTCCGGCCCAGCCCACGGAGTCACCTAGTGCAG	11900 fluorescence intensity (a.u.)
TCGACGCCGACTTCCCCTCCGACGACGATGACGACGACGACGGAGTCACCTAGTGCAG	4230 fluorescence intensity (a.u.)
TTGAGGTCACATGATTTGCCTCAGGCCACACGTCACTCGACGGAGTCACCTAGTGCAG	9070 fluorescence intensity (a.u.)
CCATCCGATCGCCATCATCTCATCATCAGTTCATCACCAACGGAGTCACCTAGTGCAG	3570 fluorescence intensity (a.u.)
GGCAGCAGGTGGAGGTGACGCGGCGGCAGGACTACGAGCGCGGAGTCACCTAGTGCAG	3140 fluorescence intensity (a.u.)
TGGGACCCATTGACATGTGGGGCCCACATGTCATCCTCTCCGGAGTCACCTAGTGCAG	3200 fluorescence intensity (a.u.)
ATCAACGCTACGTATATGCGCGCCGTGTTACGTATCTCTTCGGAGTCACCTAGTGCAG	3780 fluorescence intensity (a.u.)
GCCTCCACCACCACGCCGCGTCACCGGCGGCGGAGCGGCGCGGAGTCACCTAGTGCAG	5770 fluorescence intensity (a.u.)
CTTTGGCTTTTAGCCATAGACTTTGATCCATGAGTTAGAACGGAGTCACCTAGTGCAG	40900 fluorescence intensity (a.u.)
CCGTTGCCGCGCCGTGGACCGACAGCCACTGACGTCACCCCGGAGTCACCTAGTGCAG	18600 fluorescence intensity (a.u.)
GGAGGATGGTTTCGCTGATGTGGCGACTACGTGGTGGTGTCGGAGTCACCTAGTGCAG	19900 fluorescence intensity (a.u.)
ACGGCACACCGCGTGCCTCACGAGTGACGTGTTCCGTCGCCGGAGTCACCTAGTGCAG	4900 fluorescence intensity (a.u.)
AAATAAACTAAGCACATGATGCATAACAATCACAATAGAACGGAGTCACCTAGTGCAG	3340 fluorescence intensity (a.u.)
CAGCAGCAGATGCAAACGCAGCCTTTGTACTTTCGGGAATCGGAGTCACCTAGTGCAG	3690 fluorescence intensity (a.u.)
TTGAGCTTTGCTGATTCAGCAGTGCTCATCTACGTGGACACGGAGTCACCTAGTGCAG	16000 fluorescence intensity (a.u.)
TAATTCAGATTCGTGGTATTAAAATGTTTCGCATTCCATACGGAGTCACCTAGTGCAG	3370 fluorescence intensity (a.u.)
GCTGTGATCGATGATATACTACGGTACACAGCCGGTAGTACGGAGTCACCTAGTGCAG	3620 fluorescence intensity (a.u.)

Sequence	binding signal
GATTAATACGACTACTGTCATACGTACTGTACATGTCATGCGGAGTCACCTAGTGCAG	3720 fluorescence intensity (a.u.)
GTTGAGGGATGACAGGTGGACTTATTTCCTATTTCATGTGCGGAGTCACCTAGTGCAG	6590 fluorescence intensity (a.u.)
GTATTATGGATTTACGGGTGCCAACAGTTTTGATGGTAAGCGGAGTCACCTAGTGCAG	3530 fluorescence intensity (a.u.)
GGTTTTCCTCGACAAGTACCCTGCAGGCTGCAGCATGCCACGGAGTCACCTAGTGCAG	3900 fluorescence intensity (a.u.)
CCCAAGGAGGATGAGGTGGAGGTGGGAGTGCGCATTGAGGCGGAGTCACCTAGTGCAG	4880 fluorescence intensity (a.u.)
AGATGCTAACCAATGACGTGGTGATTAACCCGTACGTGATCGGAGTCACCTAGTGCAG	15300 fluorescence intensity (a.u.)
TCATTAATTAATTAATTACAGTGGTAGATGATGATGTAGTCGGAGTCACCTAGTGCAG	3250 fluorescence intensity (a.u.)
GATGGGATTGGGACAAAGATATGAGTGGAGGGTTGAGATGCGGAGTCACCTAGTGCAG	3390 fluorescence intensity (a.u.)
CTATTGTACATGTACGGGTGCACTGACAGCACGTGAGACGCGGAGTCACCTAGTGCAG	3820 fluorescence intensity (a.u.)
AGAGGAGGATGACGTGGATACGCTGACATGTGGGGTCCACCGGAGTCACCTAGTGCAG	13100 fluorescence intensity (a.u.)
AGACCCAAAACCCGCGCCACGTACGCGCGAGCCCTTCTCCCGGAGTCACCTAGTGCAG	13300 fluorescence intensity (a.u.)
CGTTCGCTTCTCTTCTCCCCGCTCCGCTAGTCATCAACCACGGAGTCACCTAGTGCAG	3240 fluorescence intensity (a.u.)
TTGGTATTTTACGTGTAGGGTTTGTGATGTGAAGGTCCGACGGAGTCACCTAGTGCAG	3330 fluorescence intensity (a.u.)
CGCACGTACGTGCTAGCAATTTAGCTGGCGCCCGCGTCAGCGGAGTCACCTAGTGCAG	4180 fluorescence intensity (a.u.)
AGAGAAAGATTAGAGCCACATACATTTGGGAGGAGTTAATCGGAGTCACCTAGTGCAG	4540 fluorescence intensity (a.u.)
GAATAGCACTTACTAGAGCTGGTGAGCTCTCTTTAATGCACGGAGTCACCTAGTGCAG	29300 fluorescence intensity (a.u.)
TGAAGCTGACATGATAACACTATCGTAGGTCCAGGTTGGCCGGAGTCACCTAGTGCAG	3750 fluorescence intensity (a.u.)
ATCTCCAGGTTAGTAGATAGCTTTGTTCTCTCTCTTCATTCGGAGTCACCTAGTGCAG	36400 fluorescence intensity (a.u.)
AGCCAGGGGAAGGGTCAGATGACAATGCAGTTTCTGCTGCCGGAGTCACCTAGTGCAG	20100 fluorescence intensity (a.u.)
GGCAGGCAGGCAGCAGGCCACGCTCCCCTCGCAGCCACCACGGAGTCACCTAGTGCAG	3810 fluorescence intensity (a.u.)
CACGAAGATCTCCTCCTCAGCCAACTCACCGGTGACGCTGCGGAGTCACCTAGTGCAG	6320 fluorescence intensity (a.u.)

Look-ups from the list.
binding signal, AGAGAAAGATTAGAGCCACATACATTTGGGAGGAGTTAATCGGAGTCACCTAGTGCAG is entered as 4540 fluorescence intensity (a.u.)
binding signal, CCGGAGCCGGAAGCTGACGCGTGGCACGTGGTCGGCGAGGCGGAGTCACCTAGTGCAG is entered as 8390 fluorescence intensity (a.u.)
binding signal, GCCTCCACCACCACGCCGCGTCACCGGCGGCGGAGCGGCGCGGAGTCACCTAGTGCAG is entered as 5770 fluorescence intensity (a.u.)
